Experimental data from publication PMC12858401.
These are yes or no findings as the source states them, for the method shown. Binding seen in cells or lysates may run through a third protein. These calls come from enrichment with a bait or labelling near it, and not all partners need be listed.

Protein sequences, listed by entry. Tags and fused reporters are not part of them. Residues count along the entry.
UniProt P62330: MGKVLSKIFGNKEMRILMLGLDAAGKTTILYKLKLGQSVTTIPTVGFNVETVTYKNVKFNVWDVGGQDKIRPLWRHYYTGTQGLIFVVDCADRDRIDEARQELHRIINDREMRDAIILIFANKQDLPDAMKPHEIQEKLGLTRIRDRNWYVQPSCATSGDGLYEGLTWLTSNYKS
UniProt P16070, residues 21-742: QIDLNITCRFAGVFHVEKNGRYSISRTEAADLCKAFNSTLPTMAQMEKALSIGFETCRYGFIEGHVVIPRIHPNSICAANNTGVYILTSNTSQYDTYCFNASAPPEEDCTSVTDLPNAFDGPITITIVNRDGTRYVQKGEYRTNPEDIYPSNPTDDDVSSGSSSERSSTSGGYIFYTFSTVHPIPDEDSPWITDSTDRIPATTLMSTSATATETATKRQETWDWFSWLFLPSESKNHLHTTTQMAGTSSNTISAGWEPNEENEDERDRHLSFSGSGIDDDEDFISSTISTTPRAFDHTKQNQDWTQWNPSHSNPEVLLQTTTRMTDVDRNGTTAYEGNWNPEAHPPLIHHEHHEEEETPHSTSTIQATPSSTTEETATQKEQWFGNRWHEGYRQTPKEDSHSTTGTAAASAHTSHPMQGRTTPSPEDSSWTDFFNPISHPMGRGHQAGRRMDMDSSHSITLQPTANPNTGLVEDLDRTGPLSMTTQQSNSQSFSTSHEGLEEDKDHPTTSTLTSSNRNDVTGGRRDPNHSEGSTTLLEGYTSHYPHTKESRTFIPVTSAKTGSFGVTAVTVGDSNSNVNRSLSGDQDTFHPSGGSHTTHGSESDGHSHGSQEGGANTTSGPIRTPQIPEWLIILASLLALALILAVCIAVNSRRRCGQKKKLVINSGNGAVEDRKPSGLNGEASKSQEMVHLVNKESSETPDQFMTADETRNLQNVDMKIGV

Tests used:
[1] = target: EGFR–HaloTag (Flag–EGFR–HaloTag; full-length EGFR with an intracellular C-terminal HaloTag) (UniProt P00533); assay: proximity labelling; ICD ecto-tag MultiMap with EY–HTL on EGFR–HaloTag in A549 cells; biotin immunoprecipitate (streptavidin beads) read by western blot; EGF for 5, 10, 30 and 60 min
[2] = target: EGFR–HaloTag (Flag–EGFR–HaloTag; full-length EGFR with an intracellular C-terminal HaloTag) (UniProt P00533); assay: proximity labelling; ICD ecto-tag MultiMap: live A549 cells expressing EGFR–HaloTag, serum-starved, EY–HTL anchored and washed out; with versus without EGFR–HaloTag, and EGF for 5 min or 60 min versus no EGF; three biotin photoprobes at 100 μM, 2 min blue light at 4 °C; streptavidin enrichment and LC–MS/MS
[3] = target: Flag–EGFR (full-length EGFR with an extracellular N-terminal Flag tag) (UniProt P00533); assay: proximity labelling; ECD ecto-tag MultiMap: live A549 cells expressing Flag–EGFR, serum-starved, anti-Flag–EY antibody bound at 4 °C; EGF for 5 min or 60 min versus no EGF; aryl-diazirine-biotin, aryl-azide-biotin or phenol-biotin at 100 μM, 2 min blue light at 4 °C; streptavidin enrichment and LC–MS/MS; enrichment normalised to EGFR

Molecule | binding [1] | binding [2] | binding [3]
ARF6, an ADP-ribosylation factor (from UniProt P62330 1-175) | binds | binds | binds
CD44 (from UniProt P16070 21-742) | binds | binds | binds
DNM1 (protein, UniProt Q05193 1-864) MGNRGMEDLIPLVNRLQDAFSAIGQNADLDLPQIAVVGGQSAGKSSVLENFVGRDFLPRGSGIVTRRPLVLQLVNATTEYAEFLHCKGKKFTDFEEVRLEIEAETDRVTGTNKGISPVPINLRVYSPHVLNLTLVDLPGMTKVPVGDQPPDIEFQIRDMLMQFVTKENCLILAVSPANSDLANSDALKVAKEVDPQGQRTIGVITKLDLMDEGTDARDVLENKLLPLRRGYIGVVNRSQKDIDGKKDITAALAAERKFFLSHPSYRHLADRMGTPYLQKVLNQQLTNHIRDTLPGLRNKLQSQLLSIEKEVEEYKNFRPDDPARKTKALLQMVQQFAVDFEKRIEGSGDQIDTYELSGGARINRIFHERFPFELVKMEFDEKELRREISYAIKNIHGIRTGLFTPDMAFETIVKKQVKKIREPCLKCVDMVISELISTVRQCTKKLQQYPRLREEMERIVTTHIREREGRTKEQVMLLIDIELAYMNTNHEDFIGFANAQQRSNQMNKKKTSGNQDEILVIRKGWLTINNIGIMKGGSKEYWFVLTAENLSWYKDDEEKEKKYMLSVDNLKLRDVEKGFMSSKHIFALFNTEQRNVYKDYRQLELACETQEEVDSWKASFLRAGVYPERVGDKEKASETEENGSDSFMHSMDPQLERQVETIRNLVDSYMAIVNKTVRDLMPKTIMHLMINNTKEFIFSELLANLYSCGDQNTLMEESAEQAQRRDEMLRMYHALKEALSIIGDINTTTVSTPMPPPVDDSWLQVQSVPAGRRSPTSSPTPQRRAPAVPPARPGSRGPAPGPPPAGSALGGAPPVPSRPGASPDPFGPPPQVPSRPNRAPPGVPSRSGQASPSRPESPRPPFDL | binds |  | binds
